{
  "source": "patent US10231958B2",
  "about": "“Methods and compositions for enhancing chemotherapy” (THE BOARD OF REGENTS OF THE UNIVERSITY OF TEXAS SYSTEM, priority 2015, dated 2019)",
  "key": {"[1]": {"test_system": "Intracellular ROS production", "assay": "Real-time ROS production (DCF assay)", "type": "cell-based", "settings": "BSO 2.5 mM; CDDP 75 μM, TMZ 1.5 mM, 4HC 75 μM; 12 h", "description": "Intracellular ROS production was detected using DCFH-DA probe (Sigma) (Zanotto-Filho et al., 2010, Cancer Lett 288, 192-203). This reagent enters the cells and reacts predominantly with highly oxidizing species of ROS, such as hydroxyl radicals, hydroperoxides, and peroxynitrite, thus producing the fluorophore DCF. Briefly, cells were seeded in black-edge clear bottom 96-well plates. After reaching 70% confluence, medium was changed and cells were incubated with 20 μM DCFH-DA dissolved in medium containing 0.5% FBS. After 1 h pre-incubation to allow DCFH-DA uptake, treatments were added to its respective final concentrations and DCF fluorescence was monitored at 0.5, 1, 3, 8, 12, 16 and 24 h in a fluorescence reader (Ex/Em=485/532 nm). Hydrogen peroxide was used as a positive control and N-acetylcysteine (NAC), GSH-ethyl-ester (GSH-E) and Trolox were used as antioxidant standards. As a control, at the end of 24 h, cell viability was assessed and compared to wells in the absence of DCFH-DA."}, "[2]": {"test_system": "NRF2, GCLC, ER stress markers", "assay": "Western blot of NRF2, GCLC and ER stress markers", "type": "cell-based", "description": "Western blot. Protein lysates were prepared using RIPA buffer containing 5% sodium deoxycholate, 0.1% SDS, 0.1% Igepal in PBS with a cocktail of protease and phosphatase inhibitors (1 mM PMSF, 1 mM sodium orthovanadate, 1 mM NaF, and 30 μL/mL aprotinin (Sigma-Aldrich, USA)) and clarified by centrifugation. Protein concentration was determined using Bradford Protein Assay Reagent (Biorad, Hercules, Calif.). Equal amounts of protein were resolved using 8-12% SDS polyacrylamide gel, transferred onto nitrocellulose membranes (Hybond-ECL, GE Healthcare Lifesciences, Piscataway, N.J.) and detected using Lumiglo system (Cell Signaling Technology, Calif.) and x-ray films. Primary antibodies included COX-2 (#4842), NRF2 (D1C9), p-JNK1/2 (Thr183/Tyr185, #4671), p-p38 (Thr180/Tyr182, #9216), p-ERK1/2 (Thr202/Tyr204, #9101), BiP/GRP78 (C50B12), IRE1a (14C10), CHOP (L63F7) and PERK (D11A8) from Cell Signaling Technology; p-IRE1a (Ser724; NB100-2323) from Novus Biologicals; GCLC (Ab41463), beta-actin (ab8227) and ATF6 (Ab37149) from Abcam; p-PERK (Thr 981, sc-32577) and ATF3 (C19) were purchased from Santa Cruz. All primary antibodies were used at 1:1000 dilutions and secondary antibodies were 1:3000 in TBS-T with 5% BSA."}, "IL8, MMP1, MMP3 and PGE2": {"test_system": "IL8, MMP1, MMP3 and PGE2", "assay": "ELISA of inflammatory mediators in culture medium", "type": "cell-based, human", "description": "Quantification of MMP1 and MMP3 content in culture medium was assessed using RayBio-MMP3 and RayBio-MMP1 Elisa Kit (RayBiotech, Inc); IL8 was analyzed by Human IL-8 Elisa kit (Pierce Biotechnology). The levels of prostaglandin E2 (PGE2) were determined using the Prostaglandin E2 EIA Kit Monoclonal (Cayman Chemical Company). Culture media were diluted to fit within the standard curves. For conditioned media (CM) preparation for invasion and in vitro angiogenesis experiments, 12-well plated cells were treated with MMS (or MMS plus inhibitors) for 8 h in the presence of 10% FBS, twice washed with HBSS, and incubated with 700 μL drug/serum-free fresh medium for additional 12 h. Thereafter, the conditioned fresh medium was collected and directly used for migration and invasion experiments in order to reduce freezing associated loss of activity."}},
  "note": "At least one structure is not confirmed: it was looked up by name or label, or the drawing left a doubt.",
  "data": [
    {"smiles": "Cn1nnc2c(C(N)=O)ncn2c1=O", "note": "[TMZ, temozolomide]", "values": [
      {"measurement": "ROS production, agent alone", "setting": "[1]", "result": "increased ROS"},
      {"measurement": "NRF2 and GCLC protein levels", "setting": "[2]; MEFs, MDA-MB231, MCF-7, 8-12 h", "result": "induced NRF2 and GCLC protein"},
      {"measurement": "immunocontent of ER stress markers", "setting": "[2]; cancer cells, 24 h", "result": "increased the immunocontent of ER stress markers"},
      {"measurement": "production of IL-8, MMP-1 and MMP-3", "setting": "IL8, MMP1, MMP3 and PGE2; MDA-MB231 culture medium", "result": "increased the production of these molecules"},
      {"measurement": "prostaglandin E2 (PGE2) in culture medium and COX-2 protein in lysates", "setting": "IL8, MMP1, MMP3 and PGE2; human cancer cells, 12 h", "result": "increased levels of prostaglandin E2 (PGE2)"}
    ]}
  ]
}
